# This is one part of the list. The main result of the screen is listed elsewhere. These columns were measured beside it and carry no call. The list favours compounds with an active or inconclusive main result. The note in brackets gives the kind of curve behind each potency; many fits are weak.
# Assay: qHTS Assay to Find Inhibitors of Chronic Active B-Cell Receptor Signaling
# Settings: ABC-DLBCL IkBa-CBG/CBR reporter, luminescence ratio (green luciferase fused to IkBa over red control in TMD8 lymphoma cells), 4 h
# Method in brief: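 Doxycycline induced both beetle luciferases in TMD8 lymphoma cells; IKK-driven degradation limits the IkappaBalpha-fused green signal, while red luminescence normalises for cell number and nonspecific effects. Compounds tested up to 46 uM, 4 hrs.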
# [1] = measured here: CBR red luminescence, cell number
# [2] = measured here: IkBa-CBG green luminescence
Structure (SMILES),AC50 [1],AC50 [2]
CCC(=O)Nc1ccc(-c2ccc(N3CCCCC3)nn2)cc1,"20 µM [rising, single point]",
CN(C)c1ccc(C2CC(c3ccccc3)=Nc3nc(-c4ccccc4)cn32)cc1 (stereo unspecified),"23.1 µM [falling, single point]",
C#CCOCCOCCOCCNc1nc(N2CCN(C(=O)Cn3cc(CCCN=C(N)N)nn3)CC2)nc(N2CCN(C(=O)[C@H]([C@@H](C)O)n3cc(CCCCN)nn3)CC2)n1,"0.731 µM [rising, full curve, poor fit]",
CCCc1nnc(NC(=O)c2cccc(OC)c2)s1,"11.2 µM [falling, partial curve]",
COc1cccc(NC2c3ccccc3C(=O)N2Cc2ccccc2Cl)c1 (stereo unspecified),"35.5 µM [falling, single point]",
Cc1cccc(C(=O)N(Cc2ccc(C)o2)C2CCS(=O)(=O)C2)c1 (stereo unspecified),"0.398 µM [falling, full curve, poor fit]",
O=C(CN1CCCCC1)NC(=O)NC1CCCC1,"7.08 µM [rising, partial curve]",
Cc1ccc(-n2nnnc2Sc2nc([N+](=O)[O-])nn2C)cc1,"16.4 µM [falling, single point]","25.9 µM [falling, single point]"
Cc1ccc(-n2cc(-c3ccccc3)c3c(NN4CCOCC4)ncnc32)cc1,"20.6 µM [rising, partial curve, poor fit]",
CC1=C(C)C(=O)C(N2CCOCC2)=CC1=O,"32.6 µM [falling, single point]",
COc1cccc(C(=O)Nc2cccc(C(=O)N3CCOCC3)c2)c1,"2.91 µM [rising, single point]",
Cc1ccc(OCC(=O)NNC(=O)Cn2c(=O)cnc3ccccc32)cc1,"5.17 µM [falling, partial curve]",
O=C(NCCC(=O)N1CCCCC1)c1ccc(Br)cc1,"5.01 µM [rising, single point]",
CCNS(=O)(=O)c1ccc(Br)c(C(=O)OC(C)C(=O)NCC2CCCCC2)c1 (stereo unspecified),"5.8 µM [rising, partial curve, poor fit]",
O=C(Nc1cnn(Cc2c(Cl)cccc2Cl)c1)c1ccc([N+](=O)[O-])cc1,"0.251 µM [rising, partial curve, poor fit]",
Cc1cc(C)c(C(CC(=O)c2cccs2)C(C#N)C#N)c(C)c1 (stereo unspecified),"18.4 µM [falling, single point]",
CC1CN(S(=O)(=O)c2cccc(C(=O)N(CCc3ccccc3)Cc3ccccc3)c2)CC(C)O1 (stereo unspecified),"29.1 µM [falling, single point]",
CCC(C)c1ccc(NC(=O)C/C(C)=N/NC(=O)c2cnccn2)cc1 (stereo unspecified),"23.1 µM [falling, single point]",
Oc1ccc2oc3c(c2c1/C=N/n1cnnc1)CCCC3,"35.5 µM [rising, partial curve, poor fit]",
CN(C)CCCN1c2ccccc2Sc2ccc(C(F)(F)F)cc21,"23.1 µM [falling, partial curve, poor fit]",
Nc1nc(-c2ccccc2)cs1,"0.58 µM [rising, full curve, poor fit]",
CCN(C(=O)C1CCCN1S(=O)(=O)c1cccc2nsnc12)c1ccccc1 (stereo unspecified),"20 µM [rising, single point]",

# Part of the list above in order of heavy-atom count, ascending.
Structure (SMILES),AC50 [1],AC50 [2]
CC1=C(C)C(=O)C(N2CCOCC2)=CC1=O,"32.6 µM [falling, single point]",
Oc1ccc2oc3c(c2c1/C=N/n1cnnc1)CCCC3,"35.5 µM [rising, partial curve, poor fit]",
Cc1cccc(C(=O)N(Cc2ccc(C)o2)C2CCS(=O)(=O)C2)c1 (stereo unspecified),"0.398 µM [falling, full curve, poor fit]",
COc1cccc(C(=O)Nc2cccc(C(=O)N3CCOCC3)c2)c1,"2.91 µM [rising, single point]",
CCN(C(=O)C1CCCN1S(=O)(=O)c1cccc2nsnc12)c1ccccc1 (stereo unspecified),"20 µM [rising, single point]",
CN(C)c1ccc(C2CC(c3ccccc3)=Nc3nc(-c4ccccc4)cn32)cc1 (stereo unspecified),"23.1 µM [falling, single point]",

# Next entries follow:

Structure (SMILES),AC50 [1],AC50 [2]
CCOC(=O)C(CCCOc1ccc(C)cc1)C(=O)OCC,"0.651 µM [falling, full curve, poor fit]",
COc1ccc(C2C3=C(NCCN=C3c3ccccc3)C(=O)N2c2ccccc2)c(OC)c1 (stereo unspecified),"22.4 µM [falling, partial curve, poor fit]",
O=C(c1ccncc1)N1CCN(c2ccc(F)cc2)CC1,"2.91 µM [falling, single point]",
COc1ccc(CCNC(=O)CN(c2cccc([N+](=O)[O-])c2)S(C)(=O)=O)cc1,"6.31 µM [rising, partial curve, poor fit]",
COc1cccc2sc(N)nc12,"5.8 µM [falling, partial curve]",
Cc1cccc(C(=O)O/N=C(\N)c2ccccn2)c1,"1.58 µM [falling, full curve]",
C=CCN(CC=C)C(=S)Nc1ccc2nsnc2c1,"35.5 µM [falling, single point]",
CCN1CCCC1CN(Cc1cc2ccc(C)cc2[nH]c1=O)C(=S)Nc1ccc(OC)cc1OC (stereo unspecified),"13 µM [rising, partial curve, poor fit]",
Cc1ccccc1CC(=O)N1CCN(C(=O)C2CCCO2)CC1 (stereo unspecified),"3.16 µM [rising, partial curve, poor fit]",
NS(=O)(=O)c1ccc(NC(=O)c2cccc3ccccc23)cc1,"2 µM [falling, full curve]",
COc1ccc(N=c2oc3c(OC)cccc3cc2C(=O)NCc2ccco2)cc1OC,"32.6 µM [falling, partial curve, poor fit]",
C/C(=N/NC(=O)c1ccn(C)n1)c1ccncc1,"35.5 µM [falling, single point]",
COC(=O)C(=Nc1ccccc1)/C(C(=O)C(=O)N(C)c1ccccc1)=C(\O)c1ccc(Cl)cc1,"7.94 µM [falling, partial curve]",
CC(=O)Nc1cccc(-c2nc3ccc(NC(C)=O)cc3[nH]2)c1,"0.1 µM [falling, full curve, poor fit]",
COc1ccc(-c2nn(-c3ccccc3)cc2/C=N/NC(=O)c2cccc(S(=O)(=O)Nc3ccccc3OC)c2)cc1,"8.2 µM [rising, partial curve]",
O=C(CCCOc1ccc(Cl)cc1Cl)NCc1ccncc1,"7.94 µM [rising, full curve, poor fit]",
CCn1c(COC(=O)CNC(=O)c2ccccc2)nc2cc(S(=O)(=O)N(C)C)ccc21,"29.1 µM [rising, single point]",
O=C(c1ccc(COCC(F)(F)F)cc1)N1CCN(c2ccccn2)CC1,"0.316 µM [rising, partial curve, poor fit]",
CCCc1cc(=O)oc2cc(OCC(=O)NCCCn3ccnc3)c(Cl)cc12,"15.8 µM [rising, partial curve, poor fit]",
C=CCn1c(=O)c(C#N)cc2c(=O)n3ccccc3nc21,"2.82 µM [falling, full curve, poor fit]",
CCOc1ccc(NC2c3ccccc3C(=O)N2c2ccc(Cl)cn2)cc1 (stereo unspecified),"29.1 µM [rising, single point]",
O=C(Nc1ccc2c(c1)OCCO2)C1CCN(C(=O)c2ccc(F)cc2)CC1,"35.5 µM [falling, single point]",

Structure (SMILES),AC50 [1],AC50 [2]
CCCCn1cnc2c(sc3nc4c(cc32)CSC(C)(C)C4)c1=O,"18.4 µM [rising, partial curve, poor fit]",
O=c1[nH]c(=O)n(Cc2ccco2)c2c1C(C(F)(F)F)(C(F)(F)F)N=C(CCc1ccccc1)N2,"35.5 µM [falling, single point]",
COc1ccc(-c2cc(-c3cc(F)ccc3O)[nH]n2)cc1OC,"10 µM [falling, partial curve, poor fit]",
COc1ccc(NC(=O)c2ccccn2)cc1,"10 µM [falling, partial curve]",
O=Cc1ccc(OCc2cccc(C(F)(F)F)c2)cc1O,"12.6 µM [rising, partial curve]",
CN(C)S(=O)(=O)c1ccc(C(=O)Nc2ccccc2SCCC#N)cc1,"12.6 µM [falling, partial curve, poor fit]",
Cc1ccc(C(=O)Nc2cnc3ccccc3c2)cc1,"20.6 µM [falling, single point]",
Cc1cccc(C(=O)NNC2=CC(=O)CC(C)(C)C2)c1O,"35.5 µM [falling, single point]",
O=c1c(C=NCCCO)c(-c2ccccc2)[nH]n1-c1nc2ccccc2s1,"1.58 µM [rising, full curve, poor fit]","5.62 µM [falling, partial curve, poor fit]"
COCCN1CCN(Cc2cn(C)nc2-c2ccc(Oc3ccccc3)cc2)CC1,"15.8 µM [rising, partial curve, poor fit]",
Cc1cc(C)cc(-c2nnc(SCC(=O)N3CCN(C(=O)c4ccco4)CC3)o2)c1,"6.31 µM [rising, partial curve, poor fit]",
Cc1ccc(Nc2nc(N)c([N+](=O)[O-])c(NCc3ccco3)n2)cc1C,"11.6 µM [rising, partial curve]",
CCCOc1ccc(C2Nc3cccc4cccc(c34)N2)cc1,"15.8 µM [falling, single point]",
CCOC(=O)c1cc(NC(=O)Nc2ccc(OC)c(OC)c2)c(C)nc1C,"4.61 µM [falling, full curve]",
COc1ccc(OC)c(C(=O)c2c(C)oc3cc([N+](=O)[O-])c(O)c([N+](=O)[O-])c23)c1,"6.31 µM [falling, single point]",
Cc1ccc(C(C(=O)NC(C)(C)C)N(Cc2ccccc2)C(=O)c2snc(C(N)=O)c2N)o1 (stereo unspecified),"22.4 µM [falling, single point]",
N#Cc1cc(C#N)c(N2CCN(c3cccc(Cl)n3)CC2)nc1N,"35.5 µM [falling, single point]",
COc1cc(CNCCO)cc(Br)c1OCc1cccs1,"7.08 µM [falling, partial curve, poor fit]",
Nc1nnc(CC(=O)Nc2ccccc2)s1,"35.5 µM [falling, single point]",
O=c1oc(-c2ccco2)nc2sc3c(c12)CCCC3,"2.91 µM [falling, full curve, poor fit]",
